Some of the results follow.
Tests used:
Assay in all cases: log2 fold change, soluble protein after heating vs DMSO (PISA); higher = thermal stabilisation; K562 lysate, 10 uM; active = over 0.2 and 3.5 SD of the protein, either way, in both replicates (recomputed)
alvocidib = compound: CN1CC[C@H](c2c(O)cc(O)c3c(=O)cc(-c4ccccc4Cl)oc23)[C@H](O)C1 [alvocidib]
Outline: (§1)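 To prepare the extract, K562 pellets were dounce-homogenised in PBS pH 7.4 with 1 mM MgCl2, giving crude material at 1 mg/mL protein. This was treated with 10 μM compound for 30 min, then heated in aliquots for 3 min over 48°C-58°C before pooling and addition of NP-40 to 0.5% at 4°C. Centrifugation at 21,000xg for 90 min left soluble protein in the supernatant, which TMTpro 16plex LC-MS/MS quantified with equalised channel sums. Results are log-two fold changes in thermal stability compared with solvent controls, from duplicates.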

The chains behind the UniProt entries cited, without tags or fusion partners. Where a name states a change or a piece, a line headed by the entry shows the natural chain unless it says otherwise.
UniProt Q9BVJ7: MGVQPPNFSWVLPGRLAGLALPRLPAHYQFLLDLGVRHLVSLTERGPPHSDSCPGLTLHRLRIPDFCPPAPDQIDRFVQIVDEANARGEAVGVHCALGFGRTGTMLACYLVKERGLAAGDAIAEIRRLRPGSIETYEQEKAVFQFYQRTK
UniProt Q9BZQ6: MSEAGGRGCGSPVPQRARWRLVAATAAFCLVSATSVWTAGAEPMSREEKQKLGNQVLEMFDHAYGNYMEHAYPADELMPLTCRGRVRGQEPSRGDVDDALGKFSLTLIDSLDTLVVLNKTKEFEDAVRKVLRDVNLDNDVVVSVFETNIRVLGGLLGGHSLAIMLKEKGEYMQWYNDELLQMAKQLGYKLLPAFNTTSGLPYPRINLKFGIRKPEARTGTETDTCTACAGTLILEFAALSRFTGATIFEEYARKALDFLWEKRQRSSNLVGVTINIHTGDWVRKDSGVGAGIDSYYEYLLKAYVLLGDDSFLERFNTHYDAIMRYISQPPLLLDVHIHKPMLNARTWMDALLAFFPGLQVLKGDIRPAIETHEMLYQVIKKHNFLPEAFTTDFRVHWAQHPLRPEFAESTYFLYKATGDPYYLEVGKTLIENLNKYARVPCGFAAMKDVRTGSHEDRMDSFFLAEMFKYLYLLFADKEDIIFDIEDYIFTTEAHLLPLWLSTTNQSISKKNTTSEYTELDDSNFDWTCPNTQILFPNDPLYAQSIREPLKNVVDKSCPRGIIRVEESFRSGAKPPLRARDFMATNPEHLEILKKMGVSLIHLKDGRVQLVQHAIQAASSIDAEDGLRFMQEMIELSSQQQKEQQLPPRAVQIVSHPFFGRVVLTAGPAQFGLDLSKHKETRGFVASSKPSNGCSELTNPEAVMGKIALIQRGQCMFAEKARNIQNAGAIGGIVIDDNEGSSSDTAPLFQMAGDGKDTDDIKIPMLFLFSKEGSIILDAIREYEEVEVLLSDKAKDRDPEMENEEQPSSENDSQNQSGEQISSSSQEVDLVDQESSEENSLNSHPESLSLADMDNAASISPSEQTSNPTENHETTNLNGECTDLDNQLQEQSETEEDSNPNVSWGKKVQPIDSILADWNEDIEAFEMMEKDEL
UniProt O60739, whole entry, looked up: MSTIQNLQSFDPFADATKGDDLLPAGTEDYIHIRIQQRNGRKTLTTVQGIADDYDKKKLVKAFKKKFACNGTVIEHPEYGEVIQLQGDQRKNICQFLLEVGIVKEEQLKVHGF
UniProt Q9BY44: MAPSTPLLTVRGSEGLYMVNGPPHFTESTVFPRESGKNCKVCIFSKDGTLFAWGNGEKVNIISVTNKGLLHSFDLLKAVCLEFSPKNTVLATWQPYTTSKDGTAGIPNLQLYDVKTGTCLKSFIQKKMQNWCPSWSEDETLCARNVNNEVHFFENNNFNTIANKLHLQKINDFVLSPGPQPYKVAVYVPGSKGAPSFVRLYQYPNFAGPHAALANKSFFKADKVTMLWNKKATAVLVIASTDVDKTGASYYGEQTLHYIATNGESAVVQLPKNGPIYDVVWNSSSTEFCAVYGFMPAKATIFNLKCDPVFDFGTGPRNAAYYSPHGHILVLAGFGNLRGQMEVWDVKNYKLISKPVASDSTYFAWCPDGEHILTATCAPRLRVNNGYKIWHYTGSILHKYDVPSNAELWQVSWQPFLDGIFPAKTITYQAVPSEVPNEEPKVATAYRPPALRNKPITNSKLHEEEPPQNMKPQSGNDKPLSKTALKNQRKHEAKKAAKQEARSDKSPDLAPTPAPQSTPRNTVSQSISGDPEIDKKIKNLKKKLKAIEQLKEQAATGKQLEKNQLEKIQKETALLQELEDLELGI
UniProt Q14919: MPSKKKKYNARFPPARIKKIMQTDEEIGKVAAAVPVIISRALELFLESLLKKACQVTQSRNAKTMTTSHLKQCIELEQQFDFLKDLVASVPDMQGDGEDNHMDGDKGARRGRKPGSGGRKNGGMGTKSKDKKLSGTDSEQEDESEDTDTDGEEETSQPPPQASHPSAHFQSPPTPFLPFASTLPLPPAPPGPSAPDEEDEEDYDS
UniProt Q9H410: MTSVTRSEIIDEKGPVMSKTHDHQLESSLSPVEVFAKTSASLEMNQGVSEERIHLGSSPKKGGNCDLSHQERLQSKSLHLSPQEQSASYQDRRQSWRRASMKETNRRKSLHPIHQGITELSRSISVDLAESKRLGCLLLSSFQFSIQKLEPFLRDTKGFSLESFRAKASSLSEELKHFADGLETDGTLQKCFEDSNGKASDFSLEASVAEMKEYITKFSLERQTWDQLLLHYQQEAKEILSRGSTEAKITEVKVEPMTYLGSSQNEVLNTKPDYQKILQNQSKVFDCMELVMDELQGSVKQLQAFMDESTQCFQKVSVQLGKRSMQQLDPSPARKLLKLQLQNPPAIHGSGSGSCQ
UniProt Q7L8W6: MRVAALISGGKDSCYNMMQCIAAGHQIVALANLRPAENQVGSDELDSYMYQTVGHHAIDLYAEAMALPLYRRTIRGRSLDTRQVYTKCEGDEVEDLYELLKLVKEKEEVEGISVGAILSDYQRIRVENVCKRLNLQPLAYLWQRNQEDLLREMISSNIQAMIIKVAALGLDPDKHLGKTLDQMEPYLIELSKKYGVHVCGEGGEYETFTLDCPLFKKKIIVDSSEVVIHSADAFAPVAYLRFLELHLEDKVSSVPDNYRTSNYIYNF
UniProt Q9Y6G9, whole entry, looked up: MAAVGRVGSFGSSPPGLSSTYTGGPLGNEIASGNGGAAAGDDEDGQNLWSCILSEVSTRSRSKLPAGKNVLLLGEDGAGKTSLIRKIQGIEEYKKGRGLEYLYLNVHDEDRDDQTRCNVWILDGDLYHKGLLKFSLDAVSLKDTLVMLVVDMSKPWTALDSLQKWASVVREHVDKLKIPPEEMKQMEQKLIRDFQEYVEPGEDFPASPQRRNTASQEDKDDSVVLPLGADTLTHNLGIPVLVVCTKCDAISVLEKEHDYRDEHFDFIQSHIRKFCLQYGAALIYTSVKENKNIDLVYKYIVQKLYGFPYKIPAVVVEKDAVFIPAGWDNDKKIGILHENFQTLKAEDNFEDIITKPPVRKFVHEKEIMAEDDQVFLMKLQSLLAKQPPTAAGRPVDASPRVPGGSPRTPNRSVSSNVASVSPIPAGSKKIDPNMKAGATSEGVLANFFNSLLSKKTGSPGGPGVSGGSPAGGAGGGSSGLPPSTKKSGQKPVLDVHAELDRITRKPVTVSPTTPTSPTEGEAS
UniProt Q9NP97, whole entry, looked up: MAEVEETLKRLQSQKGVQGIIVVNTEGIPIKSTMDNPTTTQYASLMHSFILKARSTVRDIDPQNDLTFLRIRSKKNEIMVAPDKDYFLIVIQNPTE
UniProt Q05639, whole entry, looked up: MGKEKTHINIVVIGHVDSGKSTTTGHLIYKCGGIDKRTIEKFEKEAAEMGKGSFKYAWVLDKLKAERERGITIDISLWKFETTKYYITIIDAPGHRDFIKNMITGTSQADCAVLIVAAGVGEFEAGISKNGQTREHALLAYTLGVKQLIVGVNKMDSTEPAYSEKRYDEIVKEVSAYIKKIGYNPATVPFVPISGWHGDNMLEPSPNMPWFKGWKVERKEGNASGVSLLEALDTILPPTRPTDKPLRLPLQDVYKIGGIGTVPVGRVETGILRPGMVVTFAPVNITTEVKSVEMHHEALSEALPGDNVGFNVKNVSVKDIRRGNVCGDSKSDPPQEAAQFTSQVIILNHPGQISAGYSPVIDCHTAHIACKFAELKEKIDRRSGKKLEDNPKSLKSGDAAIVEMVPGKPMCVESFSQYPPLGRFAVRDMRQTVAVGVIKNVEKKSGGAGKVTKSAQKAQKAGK
UniProt Q6P1R4: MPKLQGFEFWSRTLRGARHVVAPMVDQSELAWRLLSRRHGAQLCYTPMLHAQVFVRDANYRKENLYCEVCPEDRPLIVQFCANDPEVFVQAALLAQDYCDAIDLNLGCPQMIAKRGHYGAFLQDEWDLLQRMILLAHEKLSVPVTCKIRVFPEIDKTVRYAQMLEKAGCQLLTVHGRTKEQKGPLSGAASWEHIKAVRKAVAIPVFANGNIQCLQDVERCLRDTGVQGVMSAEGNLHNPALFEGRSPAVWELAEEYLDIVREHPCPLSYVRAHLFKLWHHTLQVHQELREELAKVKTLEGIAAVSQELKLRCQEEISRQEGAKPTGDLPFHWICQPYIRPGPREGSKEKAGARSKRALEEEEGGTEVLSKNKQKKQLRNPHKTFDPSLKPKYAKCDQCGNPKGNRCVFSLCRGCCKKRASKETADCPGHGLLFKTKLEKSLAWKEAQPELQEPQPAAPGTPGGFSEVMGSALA
UniProt Q9H4M9: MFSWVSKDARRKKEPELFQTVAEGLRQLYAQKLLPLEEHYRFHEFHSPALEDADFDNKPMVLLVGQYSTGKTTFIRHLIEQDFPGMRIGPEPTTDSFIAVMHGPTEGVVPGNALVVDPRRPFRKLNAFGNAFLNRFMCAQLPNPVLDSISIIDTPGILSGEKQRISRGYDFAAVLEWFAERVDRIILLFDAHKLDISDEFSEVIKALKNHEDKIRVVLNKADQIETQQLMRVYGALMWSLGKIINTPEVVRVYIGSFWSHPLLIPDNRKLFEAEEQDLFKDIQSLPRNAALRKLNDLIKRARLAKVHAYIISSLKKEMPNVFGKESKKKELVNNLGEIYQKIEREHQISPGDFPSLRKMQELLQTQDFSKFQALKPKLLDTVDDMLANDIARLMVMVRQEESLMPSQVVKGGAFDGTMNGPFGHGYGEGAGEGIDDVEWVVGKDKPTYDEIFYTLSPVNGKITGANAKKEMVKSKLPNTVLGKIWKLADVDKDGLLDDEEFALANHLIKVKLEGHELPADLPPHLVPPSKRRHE
UniProt Q9BUP0: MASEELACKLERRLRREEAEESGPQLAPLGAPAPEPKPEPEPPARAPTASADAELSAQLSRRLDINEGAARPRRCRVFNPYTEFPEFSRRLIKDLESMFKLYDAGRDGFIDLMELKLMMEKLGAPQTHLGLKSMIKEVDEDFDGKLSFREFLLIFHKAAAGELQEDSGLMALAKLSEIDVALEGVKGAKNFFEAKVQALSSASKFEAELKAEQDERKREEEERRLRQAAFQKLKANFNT
UniProt O75521: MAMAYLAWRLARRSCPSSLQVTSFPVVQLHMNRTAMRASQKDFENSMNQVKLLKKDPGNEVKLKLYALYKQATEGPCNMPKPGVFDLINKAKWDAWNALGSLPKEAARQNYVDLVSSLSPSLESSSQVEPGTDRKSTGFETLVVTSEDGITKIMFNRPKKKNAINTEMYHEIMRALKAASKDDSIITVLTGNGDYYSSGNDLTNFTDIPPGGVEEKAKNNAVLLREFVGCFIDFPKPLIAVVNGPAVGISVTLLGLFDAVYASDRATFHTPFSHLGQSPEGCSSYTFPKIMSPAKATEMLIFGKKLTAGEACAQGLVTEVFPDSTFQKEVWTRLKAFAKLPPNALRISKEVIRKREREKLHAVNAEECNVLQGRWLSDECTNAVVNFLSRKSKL
UniProt P42892: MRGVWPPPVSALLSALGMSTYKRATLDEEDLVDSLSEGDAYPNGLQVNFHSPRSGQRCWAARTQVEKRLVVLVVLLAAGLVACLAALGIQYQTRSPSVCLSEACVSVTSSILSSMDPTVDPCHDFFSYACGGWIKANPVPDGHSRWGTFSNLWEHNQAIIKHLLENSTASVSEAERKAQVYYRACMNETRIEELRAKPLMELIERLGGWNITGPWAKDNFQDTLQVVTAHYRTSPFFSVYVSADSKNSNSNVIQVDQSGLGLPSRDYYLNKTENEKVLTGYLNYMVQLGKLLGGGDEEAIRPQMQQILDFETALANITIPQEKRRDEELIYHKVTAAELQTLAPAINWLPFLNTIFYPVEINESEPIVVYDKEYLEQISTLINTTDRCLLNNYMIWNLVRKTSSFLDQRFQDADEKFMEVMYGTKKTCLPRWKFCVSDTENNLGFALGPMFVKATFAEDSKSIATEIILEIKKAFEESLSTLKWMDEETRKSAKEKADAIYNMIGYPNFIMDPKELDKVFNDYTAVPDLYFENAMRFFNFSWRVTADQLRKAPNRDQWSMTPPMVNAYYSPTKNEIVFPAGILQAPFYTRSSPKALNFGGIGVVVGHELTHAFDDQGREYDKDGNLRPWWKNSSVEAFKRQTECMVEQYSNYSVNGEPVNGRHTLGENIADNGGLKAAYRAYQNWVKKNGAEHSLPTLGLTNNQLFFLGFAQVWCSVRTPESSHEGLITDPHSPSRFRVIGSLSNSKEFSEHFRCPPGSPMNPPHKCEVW

Tubastatin A = compound: CN1CCc2c(c3ccccc3n2Cc2ccc(C(=O)NO)cc2)C1 [Tubastatin A]
Outline: as §1

[1] = compound: CNC(=O)C1=CC=CC=C1NC2=NC(=NC=C2Cl)NC3=C(C=C(C=C3)N4CCOCC4)OC
Outline: as §1

defactinib = compound: CNC(=O)c1ccc(Nc2ncc(C(F)(F)F)c(NCc3nccnc3N(C)S(C)(=O)=O)n2)cc1 [defactinib]
Outline: as §1

[2] = compound: CNc1nc(-c2ccc3c(N)n[nH]c3c2)cc(N2C[C@@H](C(=O)NC3CCCCC3)CC[C@H]2C)n1
Outline: as §1

encorafenib = compound: COC(=O)N[C@@H](C)CNc1nccc(-c2cn(C(C)C)nc2-c2cc(Cl)cc(NS(C)(=O)=O)c2F)n1 [encorafenib]
Outline: as §1

[3] = compound: COC(=O)[C@H](CCSC)NC(=O)C1=C(C=C(C=C1)NC[C@H](CS)N)C2=CC=CC=C2
Outline: as §1

alisertib = compound: COc1cc(Nc2ncc3c(n2)-c2ccc(Cl)cc2C(c2c(F)cccc2OC)=NC3)ccc1C(=O)O [alisertib]
Outline: as §1

[4] = compound: COc1cc2nc(-c3cc(F)ccc3O)nc(N[C@@H]3CNC[C@H]3C(C)(C)O)c2cc1OC
Outline: as §1

gefitinib = compound: COc1cc2ncnc(Nc3ccc(F)c(Cl)c3)c2cc1OCCCN1CCOCC1 [gefitinib]
Outline: as §1

lapatinib = compound: CS(=O)(=O)CCNCc1ccc(-c2ccc3ncnc(Nc4ccc(OCc5cccc(F)c5)c(Cl)c4)c3c2)o1 [lapatinib]
Outline: as §1

pictilisib = compound: CS(=O)(=O)N1CCN(Cc2cc3nc(-c4cccc5[nH]ncc45)nc(N4CCOCC4)c3s2)CC1 [pictilisib]
Outline: as §1

crizotinib = compound: C[C@@H](Oc1cc(-c2cnn(C3CCNCC3)c2)cnc1N)c1c(Cl)ccc(F)c1Cl [crizotinib]
Outline: as §1

[5] = compound: C[C@H](C1=CC=C(C=C1)C(=O)NC2=C3C=CNC3=NC=C2)N
Outline: as §1

duvelisib = compound: C[C@H](Nc1ncnc2nc[nH]c12)c1cc2cccc(Cl)c2c(=O)n1-c1ccccc1 [duvelisib]
Outline: as §1

gandotinib = compound: Cc1cc(Nc2cc(CN3CCOCC3)c3nc(C)c(Cc4ccc(Cl)cc4F)n3n2)n[nH]1 [gandotinib]
Outline: as §1

tozasertib = compound: Cc1cc(Nc2cc(N3CCN(C)CC3)nc(Sc3ccc(NC(=O)C4CC4)cc3)n2)n[nH]1 [tozasertib]
Outline: as §1

doramapimod = compound: Cc1ccc(-n2nc(C(C)(C)C)cc2NC(=O)Nc2ccc(OCCN3CCOCC3)c3ccccc23)cc1 [doramapimod]
Outline: as §1

bafetinib = compound: Cc1ccc(NC(=O)c2ccc(CN3CC[C@H](N(C)C)C3)c(C(F)(F)F)c2)cc1Nc1nccc(-c2cncnc2)n1 [bafetinib]
Outline: as §1

[6] = compound: Cc1cccc(CC(=O)N2CCc3c2ccc(-c2cn(C)c4ncnc(N)c24)c3F)n1
Outline: as §1

Measured: log2 fold change

DYRK1A (UniProt Q13627)
inactive: alvocidib 0.106 | Tubastatin A -0.088 | [1] 0.113 | defactinib 0.016 | [2] -0.034 | encorafenib 0.024 | [3] 0.002 | alisertib -0.008 | [4] 0.017 | gefitinib 0.007 | lapatinib -0.024 | pictilisib -0.003 | crizotinib 0.018 | [5] 0.055 | duvelisib -0.021 | gandotinib -0.012 | tozasertib 0.03 | doramapimod -0.06 | bafetinib -0.028 | [6] -0.021

DUSP23 (UniProt Q9BVJ7)
inactive: alvocidib 0.003 | Tubastatin A 0.059 | [1] 0.05 | defactinib -0.078 | [2] -0.025 | encorafenib 0.033 | [3] -0.018 | alisertib -0.003 | [4] -0.053 | gefitinib -0.056 | lapatinib 0.058 | pictilisib 0.036 | crizotinib 0.005 | [5] 0.022 | duvelisib 0.019 | gandotinib 0.016 | tozasertib 0.023 | doramapimod 0.039 | bafetinib -0.014 | [6] 0.031

EDEM3 (UniProt Q9BZQ6)
inactive: alvocidib -0.021 | Tubastatin A -0.017 | [1] 0.022 | defactinib -0.021 | [2] -0.019 | encorafenib 0.02 | [3] -0.013 | alisertib 0.001 | [4] 0.022 | gefitinib 0.028 | lapatinib 0.001 | pictilisib -0.026 | crizotinib -0.03 | [5] -0.028 | duvelisib -0.025 | gandotinib -0.013 | tozasertib 0.01 | doramapimod 0.022 | bafetinib -0.038 | [6] -0.019

EIF1B (UniProt O60739)
inactive: alvocidib -0.275 | Tubastatin A 0.141 | [1] -0.088 | defactinib 0.011 | [2] 0.219 | encorafenib 0.071 | [3] -0.131 | alisertib -0.078 | [4] -0.039 | gefitinib -0.365 | lapatinib 0.199 | pictilisib 0.103 | crizotinib 0.098 | [5] -0.056 | duvelisib 0.262 | gandotinib -0.099 | tozasertib 0.168 | doramapimod -0.168 | bafetinib -0.015 | [6] -0.204

EIF2A (UniProt Q9BY44)
inactive: alvocidib -0.016 | Tubastatin A 0.04 | [1] -0.002 | defactinib -0.014 | [2] 0.023 | encorafenib -0.009 | [3] -0.012 | alisertib -0.001 | [4] 0.007 | gefitinib -0.028 | lapatinib -0.008 | pictilisib 0.002 | crizotinib -0.01 | [5] -0.059 | duvelisib -0.008 | gandotinib 0.009 | tozasertib -0.025 | doramapimod 0.016 | bafetinib -0.004 | [6] 0.002

DRAP1 isoform 2 (UniProt Q14919)
inactive: alvocidib 0.008 | Tubastatin A -0.009 | [1] 0.086 | defactinib 0.028 | [2] 0 | encorafenib 0.032 | [3] -0.027 | alisertib -0.003 | [4] -0.004 | gefitinib 0.02 | lapatinib -0.004 | pictilisib -0.002 | crizotinib 0.011 | [5] 0.047 | duvelisib 0.013 | gandotinib 0.016 | tozasertib 0.009 | doramapimod 0.028 | bafetinib 0.015 | [6] -0.006

DSN1 (UniProt Q9H410)
inactive: alvocidib -0.046 | Tubastatin A -0.087 | [1] 0.076 | defactinib 0.059 | [2] 0.04 | encorafenib 0.006 | [3] 0.107 | alisertib -0.005 | [4] 0.004 | gefitinib 0 | lapatinib 0.009 | pictilisib -0.027 | crizotinib -0.016 | [5] -0.051 | duvelisib 0.004 | gandotinib 0.008 | tozasertib 0.015 | doramapimod -0.037 | bafetinib -0.026 | [6] 0.021

DPH6 (UniProt Q7L8W6)
inactive: alvocidib -0.015 | Tubastatin A -0.09 | [1] -0.023 | defactinib -0.011 | [2] -0.112 | encorafenib 0.036 | [3] -0.097 | alisertib 0.022 | [4] 0.02 | gefitinib 0.052 | lapatinib -0.014 | pictilisib 0.014 | crizotinib 0.014 | [5] -0.06 | duvelisib 0.008 | gandotinib 0.019 | tozasertib 0.041 | doramapimod 0.015 | bafetinib 0.054 | [6] 0.014

DYNC1LI1 (UniProt Q9Y6G9)
inactive: alvocidib -0.004 | Tubastatin A -0.014 | [1] 0.002 | defactinib 0.012 | [2] -0.014 | encorafenib 0.007 | [3] -0.069 | alisertib 0.008 | [4] -0.002 | gefitinib -0.015 | lapatinib 0.001 | pictilisib 0.025 | crizotinib -0.004 | [5] -0.014 | duvelisib 0.019 | gandotinib -0.052 | tozasertib 0.006 | doramapimod -0.016 | bafetinib 0.01 | [6] 0.007

DYNLRB1 (UniProt Q9NP97)
inactive: alvocidib 0.097 | Tubastatin A 0.122 | [1] 0.017 | defactinib 0.129 | [2] 0.075 | encorafenib 0.005 | [3] 0.039 | alisertib 0.007 | [4] -0.032 | gefitinib -0.142 | lapatinib 0.076 | pictilisib -0.011 | crizotinib -0.019 | [5] 0.123 | duvelisib 0.027 | gandotinib -0.015 | tozasertib 0.018 | doramapimod 0.02 | bafetinib 0.007 | [6] -0.009

EEF1A2 (UniProt Q05639)
inactive: alvocidib 0.02 | Tubastatin A -0.029 | [1] -0.005 | defactinib -0.018 | [2] 0.044 | encorafenib -0.031 | [3] 0.136 | alisertib 0.064 | [4] 0.007 | gefitinib 0.007 | lapatinib 0.001 | pictilisib 0.008 | crizotinib -0.025 | [5] -0.009 | duvelisib 0.009 | gandotinib -0.016 | tozasertib -0.017 | doramapimod 0.005 | bafetinib -0.037 | [6] 0.006

DUS1L (UniProt Q6P1R4)
inactive: alvocidib -0.018 | Tubastatin A -0.149 | [1] -0.075 | defactinib -0.019 | [2] 0.007 | encorafenib -0.01 | [3] 0.04 | alisertib -0.034 | [4] 0.046 | gefitinib -0.02 | lapatinib -0.007 | pictilisib -0.02 | crizotinib -0.047 | [5] -0.02 | duvelisib -0.015 | gandotinib -0.074 | tozasertib -0.068 | doramapimod -0.018 | bafetinib -0.075 | [6] 0.073

EHD1 (UniProt Q9H4M9)
inactive: alvocidib 0.058 | Tubastatin A -0.007 | [1] 0 | defactinib -0.021 | [2] 0.012 | encorafenib -0.022 | [3] 0.068 | alisertib -0.013 | [4] 0.004 | gefitinib -0.015 | lapatinib -0.026 | pictilisib -0.025 | crizotinib -0.056 | [5] 0.052 | duvelisib -0.015 | gandotinib -0.171 | tozasertib -0.009 | doramapimod 0.023 | bafetinib -0.03 | [6] -0.04

EFHD1 (UniProt Q9BUP0)
inactive: alvocidib -0.144 | Tubastatin A 0.007 | [1] 0.026 | defactinib 0.015 | [2] 0.018 | encorafenib 0.047 | [3] -0.023 | alisertib -0.035 | [4] 0.004 | gefitinib 0.081 | lapatinib -0.017 | pictilisib -0.018 | crizotinib -0.004 | [5] 0.052 | duvelisib 0.007 | gandotinib 0.034 | tozasertib -0.036 | doramapimod -0.019 | bafetinib 0.034 | [6] -0.043

ECI2 (UniProt O75521)
inactive: alvocidib -0.033 | Tubastatin A 0.054 | [1] -0.054 | defactinib -0.038 | [2] 0.03 | encorafenib -0.006 | [3] -0.067 | alisertib 0.004 | [4] -0.008 | gefitinib 0.011 | lapatinib -0.022 | pictilisib -0.017 | crizotinib 0.032 | [5] -0.002 | duvelisib 0.004 | gandotinib -0.009 | tozasertib 0.03 | doramapimod 0.007 | bafetinib -0.002 | [6] 0.042

ECE1 (UniProt P42892)
inactive: alvocidib -0.045 | Tubastatin A 0.067 | [1] 0.019 | defactinib -0.035 | [2] -0.025 | encorafenib 0.021 | [3] -0.032 | alisertib -0.053 | [4] 0.006 | gefitinib 0.001 | lapatinib 0.002 | pictilisib -0.053 | crizotinib 0.005 | [5] -0.009 | duvelisib 0.025 | gandotinib 0 | tozasertib -0.028 | doramapimod -0.025 | bafetinib -0.039 | [6] 0.064

— the supplement of paper PMC10849652
